# Results are given in words; binding and its absence hold for the method and conditions named. Binding can be weak; no strength is given.
# The chains behind the UniProt entries cited, without tags or fusion partners. Where a name states a change or a piece, a line headed by the entry shows the natural chain unless it says otherwise.
# UniProt A3DE71: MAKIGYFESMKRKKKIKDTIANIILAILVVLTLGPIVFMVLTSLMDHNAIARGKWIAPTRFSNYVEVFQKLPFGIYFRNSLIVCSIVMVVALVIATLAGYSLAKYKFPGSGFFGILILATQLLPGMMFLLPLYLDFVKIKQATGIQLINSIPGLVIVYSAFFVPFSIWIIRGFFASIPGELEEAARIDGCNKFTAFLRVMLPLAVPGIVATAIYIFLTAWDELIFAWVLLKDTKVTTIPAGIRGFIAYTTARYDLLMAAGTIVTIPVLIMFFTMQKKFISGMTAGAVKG
# UniProt A3DGK4: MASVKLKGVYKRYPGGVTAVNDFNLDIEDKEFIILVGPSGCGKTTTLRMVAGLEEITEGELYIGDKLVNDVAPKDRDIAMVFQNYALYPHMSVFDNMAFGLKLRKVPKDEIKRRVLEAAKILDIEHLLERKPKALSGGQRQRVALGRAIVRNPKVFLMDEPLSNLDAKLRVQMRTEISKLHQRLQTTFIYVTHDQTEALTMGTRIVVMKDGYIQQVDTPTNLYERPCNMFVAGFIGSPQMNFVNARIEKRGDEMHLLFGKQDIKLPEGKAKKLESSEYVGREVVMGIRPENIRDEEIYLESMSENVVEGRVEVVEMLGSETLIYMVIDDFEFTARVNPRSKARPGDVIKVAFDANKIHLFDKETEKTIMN
# UniProt A3DE73: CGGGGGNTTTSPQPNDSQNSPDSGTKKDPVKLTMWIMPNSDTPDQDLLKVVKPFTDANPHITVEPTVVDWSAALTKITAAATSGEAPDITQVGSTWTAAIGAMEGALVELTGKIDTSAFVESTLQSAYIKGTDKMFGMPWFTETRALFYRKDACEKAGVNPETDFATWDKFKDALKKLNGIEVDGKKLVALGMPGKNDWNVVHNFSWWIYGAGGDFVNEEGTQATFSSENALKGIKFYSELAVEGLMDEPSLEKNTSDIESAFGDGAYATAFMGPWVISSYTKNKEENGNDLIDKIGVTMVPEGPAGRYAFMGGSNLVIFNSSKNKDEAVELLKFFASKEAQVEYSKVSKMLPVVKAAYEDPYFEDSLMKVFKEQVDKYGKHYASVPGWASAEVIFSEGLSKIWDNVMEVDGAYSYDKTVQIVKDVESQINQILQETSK
# Columns and labels:
# [1] = biological target: Binding-protein-dependent transport systems inner membrane component (Cthe_1018) (Clostridium thermocellum DSM 1237 (ATCC 27405) (endogenous)) (UniProt A3DE71); assay: native gel or EMSA; two-dimensional blue native PAGE (4-15% gel) then SDS-PAGE of the membrane fraction solubilised at 4°C in 1.0% (w/v) DDM; about 40 μg protein; spots identified by MALDI-TOF/TOF; complex mass estimated from BN-PAGE markers
# [2] = biological target: ABC transporter related protein (Cthe_1862) (Clostridium thermocellum DSM 1237 (ATCC 27405) (endogenous)) (UniProt A3DGK4); assay: as above
binding [1],binding [2],Substance
binds,,ABC transporter related protein (Cthe_1862) (from UniProt A3DGK4)
binds,binds,Solute-binding protein (Cthe_1020) (from UniProt A3DE73)
